Construct, isoform or probe ends are uncertain for at least one entry. At least one verdict rests on a figure or table, not on a statement of the authors.
Experiments:
Experiment in all cases: ITC
hnRNP A1 RRM2 = hnRNP A1 RRM2 (UniProt P09651); settings: recombinant protein, residues 91-196, protein details: 2xHis6-lipoyl tag removed by TEV; for Kd: 25 C, single-stranded DNA
hnRNP A1 RRM1 = hnRNP A1 RRM1 (UniProt P09651); settings: recombinant protein, residues 1-105, protein details: 2xHis6-lipoyl tag removed by TEV; for Kd: 25 C, single-stranded DNA
[1] = target: hnRNP A1 tandem RRMs (UP1-like) (UniProt P09651); settings: recombinant protein, residues 1-196, protein details: 2xHis6-lipoyl tag removed by TEV
[2] = no Kd, not fitted by simple one- or two-site models

The chains behind the UniProt entries cited, without tags or fusion partners. Residues count along the entry.
UniProt P09651, 91-196: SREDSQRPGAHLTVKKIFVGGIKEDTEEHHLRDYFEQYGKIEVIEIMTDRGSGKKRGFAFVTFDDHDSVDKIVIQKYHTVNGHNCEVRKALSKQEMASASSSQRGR
UniProt P09651, 1-105: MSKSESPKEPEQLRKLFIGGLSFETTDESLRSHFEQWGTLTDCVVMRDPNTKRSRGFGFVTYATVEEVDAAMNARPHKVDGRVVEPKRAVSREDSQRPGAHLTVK
UniProt P09651, 1-196: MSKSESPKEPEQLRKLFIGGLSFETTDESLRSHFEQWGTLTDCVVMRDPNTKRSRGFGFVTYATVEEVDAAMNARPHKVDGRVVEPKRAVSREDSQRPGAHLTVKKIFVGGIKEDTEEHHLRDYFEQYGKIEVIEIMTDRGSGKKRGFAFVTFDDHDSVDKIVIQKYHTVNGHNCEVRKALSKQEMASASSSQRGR

Sequence: CAGGGAT [first ESS motif 7-mer]
- Kd (hnRNP A1 RRM2): 0.58 µM
- Kd (hnRNP A1 RRM1): 0.85 µM

Sequence: CAGGGATTTGGGGAC [CFTR exon 9 ESS 15-mer ssDNA]
- Kd (hnRNP A1 RRM2; N=0.452): 6.8 µM
- Kd ([1]; 25 C, single-stranded DNA): 0.233 µM
- Kd (hnRNP A1 RRM1; N=0.496): 5.8 µM

Sequence: CAGGGAUUUGGGGAC [CFTR exon 9 ESS 15-mer ssRNA (ITC)]
- binding result (hnRNP A1 RRM2; [2]): binds
- binding result [1, 2]: binds
- binding result (hnRNP A1 RRM1; [2]): binds

Sequence: TGGGGAAT [second ESS motif 8-mer]
- Kd (hnRNP A1 RRM2): 3.05 µM
- Kd (hnRNP A1 RRM1): 7.25 µM

— article PMC12171016
